Experimental data: PubChem BioAssay AID1259425 (University of Nebraska Medical Center, 2018)
Here is an unselected part of about 14,000 reagents tested. The numbers tell different reagents against one gene apart. Not stated in the record: the time to read-out.

Aim: 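Find knockdowns that reproduce the gene expression pattern seen when KSR1 is lost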 (primary screen)
System: HCT116 human colon cancer cells
Reagent: siRNA pool against human genes, 50 nM siRNA
Measurement: 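mRNA of six signature genes measured together by branched-DNA assay after 50 nM siRNA pool, blank removed, divided by geometric mean of two housekeeping genes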
Direction: BNIP3L mRNA: higher = more BNIP3L transcript after knockdown; NDRG1 mRNA: higher = more NDRG1 transcript after knockdown; BNIP3 mRNA: higher = more BNIP3 transcript after knockdown; ALDOC mRNA: higher = more ALDOC transcript after knockdown; ACSL5 mRNA: higher = more ACSL5 transcript after knockdown

| target | reagent | BNIP3L mRNA, set 1 | NDRG1 mRNA, set 1 | BNIP3 mRNA, set 1 | ALDOC mRNA, set 1 | ACSL5 mRNA, set 1 |
| --- | --- | --- | --- | --- | --- | --- |
| EIF5 (GeneID 1983) | 1 | 0.0397 | 0.0937 | 0.143 | 0.0079 | 0.0933 |
| GRIN2C (GeneID 2905) | 1 | 0.0856 | 0.126 | 0.287 | 0.00988 | 0.102 |
| CYP2J2 (GeneID 1573) | 1 | 0.103 | 0.121 | 0.218 | 0.0308 | 0.221 |
| STON2 (GeneID 85439) | 1 | 0.162 | 0.431 | 0.264 | 0.0657 | 0.303 |
| MAP2K4 (GeneID 6416) | 1 | 0.0788 | 0.044 | 0.366 | 0.00703 | 0.147 |
| S100A10 (GeneID 6281) | 1 | 0.061 | 0.311 | 0.299 | 0.0281 | 0.126 |
| SOS2 (GeneID 6655) | 1 | 0.0594 | 0.23 | 0.149 | 0.029 | 0.225 |
| LGR5 (GeneID 8549) | 1 | 0.192 | 0.136 | 0.346 | 0.0435 | 0.187 |
| LRRC1 (GeneID 55227) | 1 | 0.0734 | 0.117 | 0.382 | 0.0267 | 0.133 |
| MIB1 (GeneID 57534) | 1 | 0.0602 | 0.105 | 0.21 | 0.0193 | 0.141 |
| LINC03124 (GeneID 29798) | 1 | 0.124 | 0.348 | 0.238 | 0.0165 | 0.0492 |
| TRIM5 (GeneID 85363) | 1 | 0.207 | 0.152 | 0.249 | 0.0427 | 0.0996 |
| MS4A12 (GeneID 54860) | 1 | 0.068 | 0.565 | 0.283 | 0.0263 | 0.249 |
| THAP11 (GeneID 57215) | 1 | 0.127 | 0.19 | 0.249 | 0.031 | 0.159 |
| PHKG2 (GeneID 5261) | 1 | 0.0764 | 0.138 | 0.306 | 0.0106 | 0.174 |
| CDK5RAP1 (GeneID 51654) | 1 | 0.167 | 0.159 | 0.413 | 0.0115 | 0.276 |
| SOHLH2 (GeneID 54937) | 1 | 0.0441 | 0.374 | 0.24 | 0.018 | 0.242 |
| PNKD (GeneID 25953) | 1 | 0.142 | 0.144 | 0.38 | 0.0289 | 0.131 |
| SYNGR4 (GeneID 23546) | 1 | 0.296 | 0.316 | 0.386 | 0.0198 | 0.363 |
| ZDHHC20 (GeneID 253832) | 1 | 0.111 | 0.0932 | 0.262 | 0.0237 | 0.104 |
| EIF3M (GeneID 10480) | 1 | 0.331 | 0.208 | 0.395 | 0.0731 | 0.229 |
| TRPV5 (GeneID 56302) | 1 | 0.093 | 0.147 | 0.284 | 0.0226 | 0.0949 |
| DYRK2 (GeneID 8445) | 1 | 0.22 | 0.144 | 0.211 | 0.0107 | 0.124 |
| CSTF3 (GeneID 1479) | 1 | 0.183 | 0.0778 | 0.463 | 0.0129 | 0.157 |
| TBXT (GeneID 6862) | 1 | 0.309 | 0.513 | 0.278 | 0.0178 | 0.198 |
| PCDHGA3 (GeneID 56112) | 1 | 0.103 | 0.099 | 0.361 | 0.0264 | 0.252 |
| AZIN1 (GeneID 51582) | 1 | 0.0759 | 0.113 | 0.251 | 0.0107 | 0.162 |
| BMPR1B (GeneID 658) | 1 | 0.133 | 0.301 | 0.298 | 0.0141 | 0.152 |
| CREG1 (GeneID 8804) | 1 | 0.0462 | 0.127 | 0.208 | 0.00819 | 0.163 |
| DDN (GeneID 23109) | 1 | 0.0909 | 0.363 | 0.34 | 0.0228 | 0.278 |
| C1orf50 (GeneID 79078) | 1 | 0.0988 | 0.146 | 0.201 | 0.0326 | 0.294 |
| MCM2 (GeneID 4171) | 1 | 0.0883 | 0.138 | 0.261 | 0.0135 | 0.168 |
| GMPPA (GeneID 29926) | 1 | 0.163 | 0.133 | 0.337 | 0.0326 | 0.173 |

Copied from above (3 entries):
| target | reagent | BNIP3L mRNA, set 1 | NDRG1 mRNA, set 1 | BNIP3 mRNA, set 1 | ALDOC mRNA, set 1 | ACSL5 mRNA, set 1 |
| --- | --- | --- | --- | --- | --- | --- |
| EIF5 (GeneID 1983) | 1 | 0.0397 | 0.0937 | 0.143 | 0.0079 | 0.0933 |
| GRIN2C (GeneID 2905) | 1 | 0.0856 | 0.126 | 0.287 | 0.00988 | 0.102 |
| CYP2J2 (GeneID 1573) | 1 | 0.103 | 0.121 | 0.218 | 0.0308 | 0.221 |

Further entries follow.
| target | reagent | BNIP3L mRNA, set 1 | NDRG1 mRNA, set 1 | BNIP3 mRNA, set 1 | ALDOC mRNA, set 1 | ACSL5 mRNA, set 1 |
| --- | --- | --- | --- | --- | --- | --- |
| PASK (GeneID 23178) | 1 | 0.0732 | 0.141 | 0.328 | 0.00414 | 0.215 |
| DNAH7 (GeneID 56171) | 1 | 0.102 | 0.332 | 0.291 | 0.0319 | 0.264 |
| FCN1 (GeneID 2219) | 1 | 0.0553 | 0.089 | 0.276 | 0.0286 | 0.121 |
| ADIRF (GeneID 10974) | 1 | 0.0821 | 0.284 | 0.239 | 0.0488 | 0.132 |
| KHNYN (GeneID 23351) | 1 | 0.204 | 0.407 | 0.437 | 0.137 | 0.149 |
| TPRKB (GeneID 51002) | 1 | 0.103 | 1.05 | 0.444 | 0.0216 | 0.299 |
| YEATS4 (GeneID 8089) | 1 | 0.104 | 0.27 | 0.283 | 0.021 | 0.0907 |
| ASCC2 (GeneID 84164) | 1 | 0.166 | 0.377 | 0.301 | 0.133 | 0.492 |
| ZFAND1 (GeneID 79752) | 1 | 0.22 | 0.583 | 0.706 | 0.0354 | 0.348 |
| PLIN2 (GeneID 123) | 1 | 0.143 | 0.192 | 0.398 | 0.0375 | 0.112 |
| H4C13 (GeneID 8368) | 1 | 0.133 | 0.0523 | 0.18 | 0.015 | 0.194 |
| HPCAL4 (GeneID 51440) | 1 | 0.0999 | 0.269 | 0.368 | 0.0747 | 0.198 |
| LRRC3 (GeneID 81543) | 1 | 0.201 | 0.357 | 0.257 | 0.0648 | 0.449 |
| LRRC3 (GeneID 81543) | 2 | 0.22 | 1.39 | 2.9 | 0.315 | 0.225 |
| IL2RB (GeneID 3560) | 1 | 0.0707 | 0.185 | 0.227 | 0.0329 | 0.187 |
| HSP90AA1 (GeneID 3320) | 1 | 0.134 | 0.0777 | 0.327 | 0.0138 | 0.251 |
| SEC23IP (GeneID 11196) | 1 | 0.106 | 0.148 | 0.227 | 0.0208 | 0.109 |
| BBS7 (GeneID 55212) | 1 | 0.22 | 0.414 | 0.357 | 0.0745 | 0.0788 |
| SPZ1 (GeneID 84654) | 1 | 0.0599 | 0.172 | 0.227 | 0.0253 | 0.121 |
| RHBDD2 (GeneID 57414) | 1 | 0.174 | 0.0992 | 0.269 | 0.0483 | 0.297 |
| IL1A (GeneID 3552) | 1 | 0.0263 | 0.146 | 0.15 | 0.0111 | 0.153 |
| TTLL12 (GeneID 23170) | 1 | 0.0648 | 0.282 | 0.303 | 0.00934 | 0.162 |
| CRTC3 (GeneID 64784) | 1 | 0.107 | 0.122 | 0.382 | 0.0277 | 0.121 |
| DDX5 (GeneID 1655) | 1 | 0.111 | 0.251 | 0.336 | 0.0599 | 0.108 |
| PRSS23 (GeneID 11098) | 1 | 0.122 | 0.168 | 0.232 | 0.0297 | 0.145 |
| PCDHB12 (GeneID 56124) | 1 | 0.104 | 0.0612 | 0.289 | 0.00851 | 0.0825 |
| C1QC (GeneID 714) | 1 | 0.103 | 0.365 | 0.241 | 0.0193 | 0.226 |
| GPR107 (GeneID 57720) | 1 | 0.166 | 0.355 | 0.304 | 0.0197 | 0.206 |
| POFUT1 (GeneID 23509) | 1 | 0.0712 | 0.559 | 0.221 | 0.0507 | 0.11 |
| TPGS2 (GeneID 25941) | 1 | 0.104 | 0.534 | 0.711 | 0.0228 | 0.203 |
